# Source: PubChem BioAssay AID2012 (Sanford-Burnham Center for Chemical Genomics, 2009)
# The other results are listed elsewhere or left out.
# Biological target: Eukaryotic translation initiation factor 4H (Homo sapiens) (UniProt Q15056)
# Experiment: eIF4H binding inhibition – biochemical, uHTS, fluorescence polarization, translation initiation inhibitor project, primary screen (AID 2012)
# Conditions: eIF4H fluorescence polarization binding assay; confirmation average; at 20 µM; stronger effect = higher value
row,Structure (SMILES),inhibition [%]
1,CCCN1CCC(Nc2cc(OC)cc(OC)c2)CC1,35.5
